# From publication PMC5996148
# Amino acid sequences for entries named in this document (tags omitted).
# UniProt Q9UIV1, whole entry: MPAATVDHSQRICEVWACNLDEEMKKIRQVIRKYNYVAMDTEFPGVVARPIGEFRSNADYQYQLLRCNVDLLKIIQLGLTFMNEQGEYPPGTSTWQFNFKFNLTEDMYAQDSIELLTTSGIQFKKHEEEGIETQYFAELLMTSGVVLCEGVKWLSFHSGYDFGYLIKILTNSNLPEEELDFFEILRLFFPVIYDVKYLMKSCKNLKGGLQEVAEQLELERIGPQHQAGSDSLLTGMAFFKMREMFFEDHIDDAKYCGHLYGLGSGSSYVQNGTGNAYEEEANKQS
# Values joined by “and” are separate entries in the source; they are usually repeats but may differ in a detail not shown here. Equal values may be shown once. Some of the results follow. For some assays here: Construct or isoform of the protein are uncertain.
# How the values were obtained:
# Experiment in all cases: protein microarray (ProtoArray v5.0), streptavidin-Alexa Fluor 647
# Conditions in all cases: 3'-biotin; 20 mM Tris (pH 7.5), 5 mM MgCl2, 100 mM KCl, 0.1% Tween-20, A/T-rich and random oligonucleotide blockers; temperature not stated; high values mean tight binding
# CLEC7A (human) = system: CLEC7A (human)
# CLIC2 (human) = system: CLIC2 (human)
# CLMN (human) = system: CLMN (human)
# CLP1 (human) = system: CLP1 (human)
# CLPS (human) = system: CLPS (human)
# CLTA = target: T1, CLTA (UniProt P09496)
# T1 sequence: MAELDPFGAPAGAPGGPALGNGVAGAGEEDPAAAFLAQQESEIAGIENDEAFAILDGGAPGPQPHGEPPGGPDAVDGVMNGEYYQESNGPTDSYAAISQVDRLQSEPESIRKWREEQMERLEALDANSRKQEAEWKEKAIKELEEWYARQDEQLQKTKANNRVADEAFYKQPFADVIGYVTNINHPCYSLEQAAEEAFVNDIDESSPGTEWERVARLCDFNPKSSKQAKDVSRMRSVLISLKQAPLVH
# CLTB (human) = system: CLTB (human)
# CLUAP1 (human) = system: CLUAP1 (human)
# CLUL1 (human) = system: CLUL1 (human)
# [1] = system: CMRF35-like molecule 2 (human)
# CMTM1 (human) = system: CMTM1 (human)
# CNIH (human) = system: CNIH (human)
# CNNM1 (human) = system: CNNM1 (human)
# CNOT7 = CNOT7 (UniProt Q9UIV1)
# CNR2 (human) = system: CNR2 (human)
# CNTROB (human) = system: CNTROB (human)
# COASY (human) = system: COASY (human)
# COBRA1 (human) = system: COBRA1 (human)
# COG8 (human) = system: COG8 (human)
# COL14A1 (human) = system: COL14A1 (human)
sequence,measurement,setting,value
GGGAGGCTGAGGCAGG [G4-1 biotinylated (PQS2)],binding signal,CLEC7A (human),-0.287 z-score
same,binding signal,CLIC2 (human),-0.291 z-score
same,binding signal,CLMN (human),-0.314 z-score
same,binding signal,CLP1 (human),-0.343 z-score
same,binding signal,CLPS (human),-0.314 z-score
same,binding signal,CLTA,-0.345 z-score
same,binding signal,CLTB (human),-0.362 z-score
same,binding signal,CLUAP1 (human),-0.31 z-score
same,binding signal,CLUL1 (human),-0.351 z-score
same,binding signal,[1],-0.263 z-score
same,binding signal,CMTM1 (human),-0.258 z-score
same,binding signal,CNIH (human),-0.334 z-score
same,binding signal,CNNM1 (human),-0.342 z-score
same,binding signal,CNOT7,-0.341 z-score
same,binding signal,CNR2 (human),-0.332 z-score
same,binding signal,CNTROB (human),-0.314 z-score
same,binding signal,COASY (human),-0.261 z-score and -0.325 z-score and -0.339 z-score
same,binding signal,COBRA1 (human),-0.334 z-score
same,binding signal,COG8 (human),-0.367 z-score
same,binding signal,COL14A1 (human),-0.312 z-score

# Shown as tab-separated lines: entries from further up
sequence	measurement	setting	value
GGGAGGCTGAGGCAGG [G4-1 biotinylated (PQS2)]	binding signal	CLTB (human)	-0.362 z-score
same	binding signal	COG8 (human)	-0.367 z-score
